# These are yes or no findings as the source states them, for the method shown. In cells and extracts the contact can be indirect. Some results given as binding are weak or reduced against the parent protein; the word gives no strength. For some of these results: Where a sequence is shown, tags or fusion partners need not be part of it.
# T1: FLAG-TBK1 (TANK binding kinase 1), Q9UHD2
# T1 chain: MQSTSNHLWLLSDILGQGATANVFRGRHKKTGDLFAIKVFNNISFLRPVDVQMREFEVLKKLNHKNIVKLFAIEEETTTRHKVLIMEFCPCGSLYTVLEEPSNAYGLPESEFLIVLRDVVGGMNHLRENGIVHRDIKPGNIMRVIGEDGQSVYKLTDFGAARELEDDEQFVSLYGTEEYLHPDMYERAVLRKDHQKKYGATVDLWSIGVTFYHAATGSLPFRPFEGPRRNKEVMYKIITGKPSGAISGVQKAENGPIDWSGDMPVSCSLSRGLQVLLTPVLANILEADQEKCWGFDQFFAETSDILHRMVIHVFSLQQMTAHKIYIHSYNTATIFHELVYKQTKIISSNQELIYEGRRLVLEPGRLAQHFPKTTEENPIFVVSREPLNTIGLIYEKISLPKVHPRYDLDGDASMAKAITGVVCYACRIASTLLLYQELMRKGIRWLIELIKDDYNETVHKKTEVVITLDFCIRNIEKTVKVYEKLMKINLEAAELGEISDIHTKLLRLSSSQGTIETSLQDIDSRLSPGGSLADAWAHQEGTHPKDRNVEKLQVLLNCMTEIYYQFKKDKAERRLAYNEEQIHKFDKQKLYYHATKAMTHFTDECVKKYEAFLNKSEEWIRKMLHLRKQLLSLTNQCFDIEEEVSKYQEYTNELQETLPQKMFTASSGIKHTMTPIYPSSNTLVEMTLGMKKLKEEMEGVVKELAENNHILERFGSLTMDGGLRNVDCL
# T2: HA-TBK1, Q9UHD2
# T2 chain: T1 chain
# T3: Myc-TBK1 (UniProt Q9UHD2)
# T3 sequence: T1 chain
# T4: TBK1, endogenous in MEF cells (mouse (endogenous in MEF)) (UniProt Q9WUN2)
# T4 sequence: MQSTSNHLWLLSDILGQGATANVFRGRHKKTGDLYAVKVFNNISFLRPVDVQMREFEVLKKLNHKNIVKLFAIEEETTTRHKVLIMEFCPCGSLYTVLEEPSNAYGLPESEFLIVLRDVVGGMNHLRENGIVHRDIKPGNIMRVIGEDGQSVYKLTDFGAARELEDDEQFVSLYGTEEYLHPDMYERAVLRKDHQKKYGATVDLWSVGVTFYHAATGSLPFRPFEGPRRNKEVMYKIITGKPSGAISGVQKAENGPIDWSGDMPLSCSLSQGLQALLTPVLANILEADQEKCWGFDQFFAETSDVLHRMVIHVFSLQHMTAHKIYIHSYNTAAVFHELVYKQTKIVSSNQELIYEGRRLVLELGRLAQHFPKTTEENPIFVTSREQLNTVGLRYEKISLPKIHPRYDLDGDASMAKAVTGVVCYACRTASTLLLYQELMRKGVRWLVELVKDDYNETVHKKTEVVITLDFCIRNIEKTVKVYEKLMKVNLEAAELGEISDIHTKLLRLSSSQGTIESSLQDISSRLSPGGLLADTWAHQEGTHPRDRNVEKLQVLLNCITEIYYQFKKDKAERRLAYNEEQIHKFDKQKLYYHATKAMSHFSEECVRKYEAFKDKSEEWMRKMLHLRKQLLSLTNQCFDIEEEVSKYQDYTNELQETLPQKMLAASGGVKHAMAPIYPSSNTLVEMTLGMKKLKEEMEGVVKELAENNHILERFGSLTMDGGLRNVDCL
# B1: HA-TRIM28 (tripartite motif containing 28), Q13263 1-835 (protein)
# chain: MAASAAAASAAAASAASGSPGPGEGSAGGEKRSTAPSAAASASASAAASSPAGGGAEALELLEHCGVCRERLRPEREPRLLPCLHSACSACLGPAAPAAANSSGDGGAAGDGTVVDCPVCKQQCFSKDIVENYFMRDSGSKAATDAQDANQCCTSCEDNAPATSYCVECSEPLCETCVEAHQRVKYTKDHTVRSTGPAKSRDGERTVYCNVHKHEPLVLFCESCDTLTCRDCQLNAHKDHQYQFLEDAVRNQRKLLASLVKRLGDKHATLQKSTKEVRSSIRQVSDVQKRVQVDVKMAILQIMKELNKRGRVLVNDAQKVTEGQQERLERQHWTMTKIQKHQEHILRFASWALESDNNTALLLSKKLIYFQLHRALKMIVDPVEPHGEMKFQWDLNAWTKSAEAFGKIVAERPGTNSTGPAPMAPPRAPGPLSKQGSGSSQPMEVQEGYGFGSGDDPYSSAEPHVSGVKRSRSGEGEVSGLMRKVPRVSLERLDLDLTADSQPPVFKVFPGSTTEDYNLIVIERGAAAAATGQPGTAPAGTPGAPPLAGMAIVKEEETEAAIGAPPTATEGPETKPVLMALAEGPGAEGPRLASPSGSTSSGLEVVAPEGTSAPGGGPGTLDDSATICRVCQKPGDLVMCNQCEFCFHLDCHLPALQDVPGEEWSCSLCHVLPDLKEEDGSLSLDGADSTGVVAKLSPANQRKCERVLLALFCHEPCRPLHQLATDSTFSLDQPGGTLDLTLIRARLQEKLSPPYSSPQEFAQDVGRMFKQFNKLTEDKADVQSIIGLQRFFETRMNEAFGDTKFSAVLVEPPPMSLPGAGLSSQELSGGPGDGP
# B2: FLAG-TRIM28 full length (FL), Q13263 1-835 (protein)
# chain: B1 chain
# B3: HA-IRF3 (interferon regulatory factor 3) (protein, UniProt Q14653 1-427)
# chain: MGTPKPRILPWLVSQLDLGQLEGVAWVNKSRTRFRIPWKHGLRQDAQQEDFGIFQAWAEATGAYVPGRDKPDLPTWKRNFRSALNRKEGLRLAEDRSKDPHDPHKIYEFVNSGVGDFSQPDTSPDTNGGGSTSDTQEDILDELLGNMVLAPLPDPGPPSLAVAPEPCPQPLRSPSLDNPTPFPNLGPSENPLKRLLVPGEEWEFEVTAFYRGRQVFQQTISCPEGLRLVGSEVGDRTLPGWPVTLPDPGMSLTDRGVMSYVRHVLSCLGGGLALWRAGQWLWAQRLGHCHTYWAVSEELLPNSGHGPDGEVPKDKEGGVFDLGPFIVDLITFTEGSGRSPRYALWFCVGESWPQDQPWTKRLVMVKVVPTCLRALVEMARVGGASSLENTVDLHISNSHPLSLTSDQYKAYLQDLVEGMDFQGPGES
# B4: IRF3, endogenous in MEF cells (protein, UniProt P70671 1-419)
# chain: METPKPRILPWLVSQLDLGQLEGVAWLDESRTRFRIPWKHGLRQDAQMADFGIFQAWAEASGAYTPGKDKPDVSTWKRNFRSALNRKEVLRLAADNSKDPYDPHKVYEFVTPGARDFVHLGASPDTNGKSSLPHSQENLPKLFDGLILGPLKDEGSSDLAIVSDPSQQLPSPNVNNFLNPAPQENPLKQLLAEEQWEFEVTAFYRGRQVFQQTLFCPGGLRLVGSTADMTLPWQPVTLPDPEGFLTDKLVKEYVGQVLKGLGNGLALWQAGQCLWAQRLGHSHAFWALGEELLPDSGRGPDGEVHKDKDGAVFDLRPFVADLIAFMEGSGHSPRYTLWFCMGEMWPQDQPWVKRLVMVKVVPTCLKELLEMAREGGASSLKTVDLHISNSQPISLTSDQYKAYLQDLVEDMDFQATGNI
# Tests used:
# [1] = biological target: T1, FLAG-TBK1 (TANK binding kinase 1), …; experiment: co-IP; tagged TRIM28 constructs and tagged TBK1 co-transfected in HEK 293T; NP-40 lysis buffer (50 mM Tris-Cl pH 7.4, 150 mM NaCl, 1 mM EDTA, 1% NP-40), pre-cleared lysates with antibody overnight at 4°C, protein A magnetic beads 4 h, washes with 250 mM NaCl; precipitating antibody not named for each …; conditions: remark: other sources report otherwise
# HA-TBK1, Q9UHD2 = biological target: T2, HA-TBK1, Q9UHD2; experiment: as above; conditions: remark: other sources report otherwise
# Myc-TBK1 = biological target: T3, Myc-TBK1; experiment: co-IP; Myc-TBK1 and HA-IRF3 co-transfected in HEK 293T in the presence or absence of GFP-TRIM28; NP-40 lysis buffer, washes with 250 mM NaCl
# [2] = biological target: T4, TBK1, endogenous in MEF cells (mouse (endogenous in MEF)); experiment: co-IP; endogenous proteins in MEF cells (for TBK1-IRF3: NT CTRL MEFs), transfected with poly I:C (2.5 µg/mL) or ISD (2 µg/mL) for 3 h; control IgG or TBK1 immunoprecipitation; NP-40 lysis buffer, washes with 250 mM NaCl
binder,measurement,setting,value
B1,binding,[1],binds
B2,binding,"HA-TBK1, Q9UHD2",binds
B3,binding,Myc-TBK1,binds
B4,binding,[2],binds

# Source: PMC10940511
